Measured values from the supplement of paper PMC7666118.
The other results are listed elsewhere or left out.

The chains behind the UniProt entries cited, without tags or fusion partners. Where a name states a change or a piece, a line headed by the entry shows the natural chain unless it says otherwise.
UniProt Q9NPH3, whole entry: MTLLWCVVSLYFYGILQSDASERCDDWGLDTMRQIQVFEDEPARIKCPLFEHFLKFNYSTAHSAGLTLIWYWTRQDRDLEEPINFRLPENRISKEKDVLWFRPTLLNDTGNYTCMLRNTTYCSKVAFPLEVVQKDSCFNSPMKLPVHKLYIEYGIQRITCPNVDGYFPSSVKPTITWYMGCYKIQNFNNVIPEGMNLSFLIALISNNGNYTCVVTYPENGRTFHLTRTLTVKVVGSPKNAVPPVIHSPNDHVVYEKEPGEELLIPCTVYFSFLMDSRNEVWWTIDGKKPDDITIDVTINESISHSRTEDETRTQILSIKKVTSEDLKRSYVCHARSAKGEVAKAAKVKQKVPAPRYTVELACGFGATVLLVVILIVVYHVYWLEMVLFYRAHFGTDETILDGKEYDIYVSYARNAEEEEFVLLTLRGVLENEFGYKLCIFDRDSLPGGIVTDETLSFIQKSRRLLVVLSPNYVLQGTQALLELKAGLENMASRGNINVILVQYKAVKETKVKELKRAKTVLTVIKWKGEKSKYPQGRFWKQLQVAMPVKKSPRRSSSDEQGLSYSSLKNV
UniProt Q96D96: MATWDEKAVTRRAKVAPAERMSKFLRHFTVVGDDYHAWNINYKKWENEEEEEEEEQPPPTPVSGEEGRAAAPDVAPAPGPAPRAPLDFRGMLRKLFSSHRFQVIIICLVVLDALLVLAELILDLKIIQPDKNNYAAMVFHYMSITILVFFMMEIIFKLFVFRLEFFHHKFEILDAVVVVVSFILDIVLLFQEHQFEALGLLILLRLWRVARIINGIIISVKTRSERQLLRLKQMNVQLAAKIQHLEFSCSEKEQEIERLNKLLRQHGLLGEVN
UniProt Q9BUE6: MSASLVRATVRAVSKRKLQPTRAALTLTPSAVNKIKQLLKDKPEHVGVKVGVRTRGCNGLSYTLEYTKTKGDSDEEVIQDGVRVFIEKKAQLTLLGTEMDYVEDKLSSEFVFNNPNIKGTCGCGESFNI
UniProt P61604, whole entry: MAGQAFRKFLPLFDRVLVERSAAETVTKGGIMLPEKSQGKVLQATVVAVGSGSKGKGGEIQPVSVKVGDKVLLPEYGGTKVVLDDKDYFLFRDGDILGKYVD
UniProt Q6UW63: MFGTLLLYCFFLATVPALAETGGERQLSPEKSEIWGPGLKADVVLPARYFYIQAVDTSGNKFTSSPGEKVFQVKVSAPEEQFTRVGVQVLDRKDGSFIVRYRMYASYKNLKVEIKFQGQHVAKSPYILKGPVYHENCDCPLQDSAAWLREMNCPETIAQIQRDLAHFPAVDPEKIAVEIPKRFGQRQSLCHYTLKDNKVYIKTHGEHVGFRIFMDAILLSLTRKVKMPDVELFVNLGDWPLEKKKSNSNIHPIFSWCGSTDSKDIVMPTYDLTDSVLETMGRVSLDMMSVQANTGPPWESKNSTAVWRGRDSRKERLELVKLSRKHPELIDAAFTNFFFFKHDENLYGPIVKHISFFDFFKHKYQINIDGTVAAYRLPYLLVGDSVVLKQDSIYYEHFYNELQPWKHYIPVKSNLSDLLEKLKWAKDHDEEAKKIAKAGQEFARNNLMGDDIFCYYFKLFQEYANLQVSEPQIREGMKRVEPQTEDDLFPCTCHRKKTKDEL
UniProt Q86U28: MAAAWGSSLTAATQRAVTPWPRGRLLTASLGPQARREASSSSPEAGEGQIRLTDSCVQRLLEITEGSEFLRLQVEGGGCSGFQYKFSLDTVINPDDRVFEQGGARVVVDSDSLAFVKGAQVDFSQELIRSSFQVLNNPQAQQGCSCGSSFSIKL
UniProt A3KMH1: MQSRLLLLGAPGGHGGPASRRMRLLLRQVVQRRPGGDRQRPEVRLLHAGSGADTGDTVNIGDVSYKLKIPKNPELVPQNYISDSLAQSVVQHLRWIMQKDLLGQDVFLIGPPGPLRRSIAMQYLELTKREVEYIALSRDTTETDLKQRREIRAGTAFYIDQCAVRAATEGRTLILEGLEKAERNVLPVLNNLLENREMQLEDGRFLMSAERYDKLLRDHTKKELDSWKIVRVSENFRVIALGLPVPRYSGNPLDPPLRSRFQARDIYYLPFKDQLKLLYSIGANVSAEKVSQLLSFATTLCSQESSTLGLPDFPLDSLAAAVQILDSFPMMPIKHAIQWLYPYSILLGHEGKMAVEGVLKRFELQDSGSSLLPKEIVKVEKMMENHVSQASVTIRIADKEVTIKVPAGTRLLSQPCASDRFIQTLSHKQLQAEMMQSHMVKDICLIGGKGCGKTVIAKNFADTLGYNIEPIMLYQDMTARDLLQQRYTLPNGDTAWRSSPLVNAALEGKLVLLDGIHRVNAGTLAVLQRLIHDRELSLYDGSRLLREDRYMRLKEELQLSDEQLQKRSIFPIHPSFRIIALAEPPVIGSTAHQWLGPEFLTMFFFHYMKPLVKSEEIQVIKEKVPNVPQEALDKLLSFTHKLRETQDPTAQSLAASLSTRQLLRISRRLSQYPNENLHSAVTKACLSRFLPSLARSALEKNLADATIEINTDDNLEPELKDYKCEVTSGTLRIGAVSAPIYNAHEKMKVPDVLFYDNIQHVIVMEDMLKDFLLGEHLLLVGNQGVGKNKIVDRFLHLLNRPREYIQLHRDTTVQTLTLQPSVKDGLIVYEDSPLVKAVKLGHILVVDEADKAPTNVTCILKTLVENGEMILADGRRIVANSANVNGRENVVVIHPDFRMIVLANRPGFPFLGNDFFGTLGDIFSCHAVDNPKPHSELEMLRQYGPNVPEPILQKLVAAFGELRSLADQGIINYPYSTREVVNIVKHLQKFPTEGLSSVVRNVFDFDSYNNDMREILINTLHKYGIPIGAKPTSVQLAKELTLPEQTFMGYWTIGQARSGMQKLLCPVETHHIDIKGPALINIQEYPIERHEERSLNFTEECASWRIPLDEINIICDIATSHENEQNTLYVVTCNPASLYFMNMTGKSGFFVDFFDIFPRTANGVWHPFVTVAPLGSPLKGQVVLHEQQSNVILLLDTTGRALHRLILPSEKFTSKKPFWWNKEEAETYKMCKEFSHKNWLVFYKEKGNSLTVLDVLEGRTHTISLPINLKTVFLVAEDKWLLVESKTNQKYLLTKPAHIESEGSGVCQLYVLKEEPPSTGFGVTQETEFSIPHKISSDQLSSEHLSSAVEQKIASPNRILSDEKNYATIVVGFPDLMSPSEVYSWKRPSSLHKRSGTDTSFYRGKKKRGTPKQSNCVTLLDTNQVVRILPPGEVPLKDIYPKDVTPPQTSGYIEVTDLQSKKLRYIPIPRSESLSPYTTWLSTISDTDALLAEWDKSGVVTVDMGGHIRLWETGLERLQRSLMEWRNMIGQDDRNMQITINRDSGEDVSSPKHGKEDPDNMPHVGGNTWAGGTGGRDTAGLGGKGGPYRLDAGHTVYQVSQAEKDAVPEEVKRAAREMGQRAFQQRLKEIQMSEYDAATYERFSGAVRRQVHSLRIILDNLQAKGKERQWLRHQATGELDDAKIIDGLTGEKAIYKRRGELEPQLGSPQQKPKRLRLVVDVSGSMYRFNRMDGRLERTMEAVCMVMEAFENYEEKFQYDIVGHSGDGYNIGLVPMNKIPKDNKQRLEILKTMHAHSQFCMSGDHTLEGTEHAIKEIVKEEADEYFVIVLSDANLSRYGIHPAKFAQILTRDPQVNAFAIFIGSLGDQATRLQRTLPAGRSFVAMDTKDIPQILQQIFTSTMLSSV
UniProt Q9Y6Y0: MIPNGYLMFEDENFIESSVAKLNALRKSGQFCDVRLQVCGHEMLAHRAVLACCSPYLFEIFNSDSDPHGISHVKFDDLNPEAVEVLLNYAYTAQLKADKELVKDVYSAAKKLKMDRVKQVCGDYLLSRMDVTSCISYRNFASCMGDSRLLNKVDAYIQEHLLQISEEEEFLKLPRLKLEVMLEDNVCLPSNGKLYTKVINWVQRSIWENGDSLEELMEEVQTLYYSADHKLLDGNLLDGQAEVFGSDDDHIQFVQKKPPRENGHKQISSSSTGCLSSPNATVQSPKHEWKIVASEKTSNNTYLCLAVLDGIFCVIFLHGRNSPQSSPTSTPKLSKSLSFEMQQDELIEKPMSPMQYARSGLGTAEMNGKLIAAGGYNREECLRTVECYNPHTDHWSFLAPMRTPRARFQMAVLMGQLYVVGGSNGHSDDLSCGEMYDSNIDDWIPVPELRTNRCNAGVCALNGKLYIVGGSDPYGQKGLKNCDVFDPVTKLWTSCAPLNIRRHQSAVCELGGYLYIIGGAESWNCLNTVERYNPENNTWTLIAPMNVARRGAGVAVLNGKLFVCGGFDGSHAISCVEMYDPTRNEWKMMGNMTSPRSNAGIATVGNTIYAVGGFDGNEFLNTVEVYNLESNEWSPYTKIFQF
UniProt P13612, whole entry: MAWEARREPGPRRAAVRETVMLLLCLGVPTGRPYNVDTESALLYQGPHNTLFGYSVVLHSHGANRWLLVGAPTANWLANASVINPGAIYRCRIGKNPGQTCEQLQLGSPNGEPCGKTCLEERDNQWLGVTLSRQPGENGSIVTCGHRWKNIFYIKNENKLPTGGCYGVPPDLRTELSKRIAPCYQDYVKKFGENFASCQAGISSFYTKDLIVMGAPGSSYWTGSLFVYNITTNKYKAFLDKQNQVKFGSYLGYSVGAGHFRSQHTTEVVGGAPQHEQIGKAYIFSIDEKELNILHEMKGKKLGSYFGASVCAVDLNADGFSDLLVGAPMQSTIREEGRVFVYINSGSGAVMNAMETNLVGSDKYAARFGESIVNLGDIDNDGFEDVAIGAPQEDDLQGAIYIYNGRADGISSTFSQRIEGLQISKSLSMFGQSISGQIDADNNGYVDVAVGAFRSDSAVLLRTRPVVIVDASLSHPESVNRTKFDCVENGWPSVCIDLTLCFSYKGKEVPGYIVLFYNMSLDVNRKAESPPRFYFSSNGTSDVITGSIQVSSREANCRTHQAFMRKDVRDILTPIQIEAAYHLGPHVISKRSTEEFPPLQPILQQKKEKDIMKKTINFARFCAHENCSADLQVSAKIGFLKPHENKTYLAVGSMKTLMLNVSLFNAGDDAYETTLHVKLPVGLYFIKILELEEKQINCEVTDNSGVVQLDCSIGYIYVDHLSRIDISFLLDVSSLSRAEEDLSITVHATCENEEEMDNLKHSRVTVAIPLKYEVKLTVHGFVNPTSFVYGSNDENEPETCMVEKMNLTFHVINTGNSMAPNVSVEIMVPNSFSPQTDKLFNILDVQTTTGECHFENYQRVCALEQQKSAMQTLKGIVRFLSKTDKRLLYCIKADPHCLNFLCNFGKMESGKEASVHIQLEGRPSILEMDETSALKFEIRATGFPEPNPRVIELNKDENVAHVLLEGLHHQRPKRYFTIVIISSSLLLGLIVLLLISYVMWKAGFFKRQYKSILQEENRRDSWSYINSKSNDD
UniProt P20702, whole entry: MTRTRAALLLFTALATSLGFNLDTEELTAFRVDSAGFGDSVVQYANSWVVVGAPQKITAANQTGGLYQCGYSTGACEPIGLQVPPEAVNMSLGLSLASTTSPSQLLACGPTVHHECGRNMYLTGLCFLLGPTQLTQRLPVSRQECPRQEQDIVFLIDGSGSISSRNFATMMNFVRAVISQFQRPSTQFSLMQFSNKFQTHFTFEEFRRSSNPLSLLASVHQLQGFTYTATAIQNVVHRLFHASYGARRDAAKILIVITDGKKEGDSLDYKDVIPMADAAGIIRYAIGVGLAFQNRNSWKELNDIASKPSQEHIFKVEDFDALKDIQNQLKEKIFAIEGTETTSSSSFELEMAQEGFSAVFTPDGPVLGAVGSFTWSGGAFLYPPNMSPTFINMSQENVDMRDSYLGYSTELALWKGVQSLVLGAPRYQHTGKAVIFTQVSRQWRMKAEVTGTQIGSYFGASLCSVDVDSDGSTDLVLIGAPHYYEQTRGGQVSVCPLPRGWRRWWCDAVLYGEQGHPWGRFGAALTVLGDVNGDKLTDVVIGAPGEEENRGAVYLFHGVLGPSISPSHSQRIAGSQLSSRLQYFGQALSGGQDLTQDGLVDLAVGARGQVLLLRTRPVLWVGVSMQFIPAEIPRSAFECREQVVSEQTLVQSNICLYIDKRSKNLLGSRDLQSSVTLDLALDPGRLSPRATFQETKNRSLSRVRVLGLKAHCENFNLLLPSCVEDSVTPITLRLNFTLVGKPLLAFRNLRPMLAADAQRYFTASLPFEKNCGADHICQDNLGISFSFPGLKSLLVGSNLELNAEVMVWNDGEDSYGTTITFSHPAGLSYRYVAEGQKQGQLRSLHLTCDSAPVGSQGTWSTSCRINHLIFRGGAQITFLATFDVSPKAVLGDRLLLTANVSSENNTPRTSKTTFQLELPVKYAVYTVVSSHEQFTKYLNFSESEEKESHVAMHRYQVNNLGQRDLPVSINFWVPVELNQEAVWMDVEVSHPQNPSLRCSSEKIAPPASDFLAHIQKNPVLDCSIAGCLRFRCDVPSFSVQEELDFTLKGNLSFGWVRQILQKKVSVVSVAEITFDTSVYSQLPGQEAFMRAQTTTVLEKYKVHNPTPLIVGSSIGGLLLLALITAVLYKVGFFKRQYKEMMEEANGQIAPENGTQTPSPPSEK

compound: COc1ccc(Cn2ccc3cc(C)c(C(=O)NO)cc32)cc1; assay: dose-dependent thermal stabilisation call (2D-TPP, DLPTP, 10% FDR) (binary (1 = stabilised)); higher = stabilised by the compound; conditions: system: HL-60 intact cells; concentration range 0.04-10 µM
Protocol: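 2D thermal proteome profiling in intact HL-60 cells treated with BRD-3811 (0, 0.04, 0.29, 2, 10 uM) for 90 min at 37 C, then heated 3 min at one of 12 temperatures (42-63.9 C). Soluble protein was quantified by TMT10 MS. The value is the DLPTP call of the paper: dose-dependent thermal stabilisation over all temperatures at 10% FDR (F-test of a dose-response against a flat model); one experiment, one call per tested protein.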

| Target | dose-dependent thermal stabilisation call |
| --- | --- |
| IPO8 (UniProt O15397) | inactive: 0 |
| ITFG2 (UniProt Q969R8) | inactive: 0 |
| INTS4 (UniProt Q96HW7) | inactive: 0 |
| IFT172 (UniProt Q9UG01) | inactive: 0 |
| ILF2 (UniProt Q12905) | inactive: 0 |
| KCMF1 (UniProt Q9P0J7) | inactive: 0 |
| IL1RAP (UniProt Q9NPH3) | inactive: 0 |
| KHK (UniProt P50053) | inactive: 0 |
| KCNAB2 (UniProt Q13303) | inactive: 0 |
| KRAS (UniProt P01116) | inactive: 0 |
| KCTD6 (UniProt Q8NC69) | inactive: 0 |
| ITGAV (UniProt P06756) | inactive: 0 |
| KLC4 (UniProt Q9NSK0) | inactive: 0 |
| HVCN1 (UniProt Q96D96) | inactive: 0 |
| INTS3 (UniProt Q68E01) | inactive: 0 |
| IRAK4 (UniProt Q9NWZ3) | inactive: 0 |
| HUWE1 (UniProt Q7Z6Z7) | inactive: 0 |
| IMPDH2 (UniProt P12268) | inactive: 0 |
| ISCA1 (UniProt Q9BUE6) | inactive: 0 |
| IFT74 (UniProt Q96LB3) | inactive: 0 |

| Target | dose-dependent thermal stabilisation call |
| --- | --- |
| KIAA0090 (UniProt Q8N766) | inactive: 0 |
| KDELR1 (UniProt P24390) | inactive: 0 |
| HSPE1 (UniProt P61604) | inactive: 0 |
| KDELC1 (UniProt Q6UW63) | inactive: 0 |
| ISCA2 (UniProt Q86U28) | inactive: 0 |
| KIAA1244 (UniProt Q5TH69) | inactive: 0 |
| KIAA0564 (UniProt A3KMH1) | inactive: 0 |
| INTS9 (UniProt Q9NV88) | inactive: 0 |
| IPO11 (UniProt Q9UI26) | inactive: 0 |
| IVNS1ABP (UniProt Q9Y6Y0) | inactive: 0 |
| ITGA4 (UniProt P13612) | inactive: 0 |
| IRAK3 (UniProt Q9Y616) | inactive: 0 |
| KIAA0652 (UniProt O75143) | inactive: 0 |
| IFT57 (UniProt Q9NWB7) | inactive: 0 |
| KIAA0528 (UniProt Q86YS7) | inactive: 0 |
| ITGAX (UniProt P20702) | inactive: 0 |
| KIAA1545 (UniProt Q9HCM7) | inactive: 0 |
| IMPACT (UniProt Q9P2X3) | inactive: 0 |
| JARID1C (UniProt P41229) | inactive: 0 |
| IFI16 (UniProt Q16666) | inactive: 0 |

An excerpt of these results, with tabs:
Target	dose-dependent thermal stabilisation call
ITGAX (UniProt P20702)	inactive: 0
KIAA1545 (UniProt Q9HCM7)	inactive: 0
IMPACT (UniProt Q9P2X3)	inactive: 0
